{"source": "paper PMC10432539", "binders": {"B1": {"name": "EphA3 (receptor, UniProt O08680 21-984)", "chain": "ELSPQPSNEVNLLDSKTIQGELGWISYPSHGWEEISGVDEHYTPIRTYQVCNVMDHSQNNWLRTNWVPRNSAQKIYVELKFTLRDCNSIPLVLGTCKETFNLYYMESDDDHGVKFLEHQFTKIDTIAADESFTQMDLGDRILKLNTEIREVGPVNKKGFYLAFQDVGACVALVSVRVYFKKCPFTVKNLAMFPDTVPMDSQSLVEVRGSCVNNSKEEDPPRMYCSTEGEWLVPIGKCTCNAGYEERGFICQACRPGFYKALDGVAKCTKCPPHSSTQEDGSMNCRCENNYFRAEKDPPSMACTRPPSAPRNVISNINETSVILDWSWPLDTGGRKDITFNIICKKCGWNVRQCEPCSPNVRFLPRQLGLTNTTVTVTDLLAHTNYTFEIDAINGVSELSSPPRQFAAVSITTNQAAPSPVMTIKKDRTSRNSISLSWQEPEHPNGIILDYEVKYYEKQEQETSYTILRARGTNVTISSLKPDTTYVFQIRARTAAGYGTNSRKFEFENSPDSFSISGENSHVVMIAISAAVAIIVLTVVTYVLVGRFCGYHKSKHSSDEKRLHFGNGHLRLPGLRTYVDPHTYEDPTQAVHEFAKELDATNIAIDKVVGAGEFGEVCSGRLKLPSKKEISVAIKTLKVGYTEKQRRDFLGEASIMGQFDHPNIIRLEGVVTKSKPVMIVTEYMENGSLDSFLRKHDAQFTVIQLVGMLRGIASGMKYLSDMGYVHRDLAARNILINSNLVCKVSDFGLSRVLEDDPEAAYTTRGGKIPVRWTSPEATAYRKFTSASDVWSYGIVLWEVMSYGERPYWEMSNQDVIKAVDEGYRLPLPMDCPAALYQLMLDCWQKDRNNRPKFEQIVSILDKLIRNPGSLKIITSAAARPSNLLLDQSNVDIATFHTTGDWLNGMRTAHCKEIFTGVEYSSCDTIAKISTDDMKKVGVTVVGPQKKIISSIKALETQSKNGPVPV"}, "B2": {"name": "Blvra (enzyme, UniProt P46844 3-295)", "chain": "AEPKRKFGVVVVGVGRAGSVRLRDLKDPRSAAFLNLIGFVSRRELGSLDEVRQISLEDALRSQEIDVAYICSESSSHEDYIRQFLQAGKHVLVEYPMTLSFAAAQELWELAAQKGRVLHEEHVELLMEEFEFLRREVLGKELLKGSLRFTASPLEEERFGFPAFSGISRLTWLVSLFGELSLISATLEERKEDQYMKMTVQLETQNKGLLSWIEEKGPGLKRNRYVNFQFTSGSLEEVPSVGVNKNIFLKDQDIFVQKLLDQVSAEDLAAEKKRIMHCLGLASDIQKLCHQKK"}, "B3": {"name": "Nmt1 (enzyme, UniProt Q8K1Q0 1-496)", "chain": "MADESETAVKLPAPSLPLMMEGNGNGHEHCSDCENEEDISHNRGGLSPANDTGAKKKKKKQKKKKEKGNDMDSTQDQPVKMNSLPAERIQEIQKAIELFSVGQGPAKTMEEASKRSYQFWDTQPVPKLGEVVNTHGPVEPDKDNIRQEPYTLPQGFTWDALDLGDRGVLKELYTLLNENYVEDDDNMFRFDYSPEFLLWALRPPGWLPQWHCGVRVVSSRKLVGFISAIPANIHIYDTEKKMVEINFLCVHKKLRSKRVAPVLIREITRRVHLEGIFQAVYTAGVVLPKPVGTCRYWHRSLNPRKLIEVKFSHLSRNMTMQRTMKLYRLPETPKTAGLRPMEKKDIPVVHQLLSRYLKQFNLTPVMNQEEVEHWFYPQENIIDTFVVENANGEVTDFLSFYTLPSTIMNHPTHKSLKAAYSFYNVHTQTPLLDLMSDALVLAKMKGFDVFNALDLMENKTFLEKLKFGIGDGNLQYYLYNWKCPSMGAEKVGLVLQ"}, "B4": {"name": "EphB6 (receptor, UniProt P0C0K7 32-1013)", "chain": "LEEVLLDTTGETSEIGWLTYPPGGWDEVSVLDDQRRLTRTFEACHVAGLPPGSGQDNWLQTHFVERRGAQRAHIRLHFSVRACSSLGVSGGTCRETFTLYYRQADEPDSPDSISAWHLKRWTKVDTIAADESFPASSSSSSWAVGPHRTDQRVGLQLNVKERSFGPLTQRGFYVAFQDTGACLALVAVKLFSYTCPSVLRAFASFPETQASGAGGASLVAAVGTCVAHAEPEEDGVGGQAGGSPPRLHCNGEGRWMVAVGGCRCQPGHQPARGDKLCQACPEGSYKALPGNVPCSPCPARSHSPDPAAPVCPCLQGFYRASSDPPEAPCTGPPSAPRELWFEVQGSALMLHWRLPQELGGRGDLLFNVVCKECGGHKEPSSGGMCRRCRDEVHFDPRQRGLTESRVLVGGLRAHVPYILEVQAVNGVSELSPDPPQAAAINVSTSHEVPSAVPVMHQVSRAANSITVSWPQPEQTNGNILDYQLRYYDQAEDESHSFTMTSETNTATVTRLSPGHIYGFQVRARTAAGHGPYGGKVYFQTLPQGELSSQLPEKLSLVIGSILGALAFLLLAAITVLAVIFQRKRRGTGYTEQLQQYSSPGLGVKYYIDPSTYDDPCQAIRELAREVDPTYIKIEEVIGAGSFGEVRRGRLQPRGRREQAVAIQALWAGGAESLKMTFLGRAALLGQFQHPNILRLEGVVTRSRPVMVLTELMELGPLDSFLRQREGQFSSLQLVAMQRGVAAAMQYLSSFAFVHRALSARSVLVNSHLVCKVARLGHSPQGSSSLLRWAAPEVITHGKYTTSSDVWSFGILMWEVMSYGERPYWDMSDQEVLNAIEQEFRLPPPPGCPTGLHLLMLDTWQKDRARRPHFDQLVAAFDKMIRKPDTLQAEGSSGDRPSQALLNPVALDFPCLDSPQAWLSAIGLECYQDNFSKFGLSTFSDVAQLSLEDLPGLGITLAGHQKKLLHNIQLLQQHLRQPGSVEV"}, "B5": {"name": "Ndrg2 (protein, UniProt Q8VBU2 1-371)", "chain": "MAELQEVQITEEKPLLPGQTPEAAKEAELAARILLDQGQTHSVETPYGSVTFTVYGTPKPKRPAIFTYHDVGLNYKSCFQPLFQFGDMQEIIQNFVRVHVDAPGMEEGAPVFPLGYQYPSQDQLADMIPCILQYLNFSTIIGVGVGAGAYILSRYALNHPDTVEGLVLINIDPNAKGWMDWAAHKLTGLTSSIPEMILGHLFSQEELSGNSELIQKYRSLITHAPNLENIELYWNSYNNRRDLNFERGGEMTLKCPVMLVVGDQAPHEDAVVECNSKLDPTQTSFLKMADSGGQPQLTQPGKLTEAFKYFVQGMGYMASSCMTRLSRSRTASLTSAASIDGSRSRSRTLSQSSESGTLPSGPPGHTMEVSC"}, "B6": {"name": "Ipo13 (protein, UniProt Q9JM04 1-963)", "chain": "MERREEQLGAAGAGAAPALDFTVENVEKALHQLYYDPNIENKNLAQKWLMQAQVSPQAWHFSWQLLQPDKVPEIQYFGASALHIKISRYWSDIPTDQYESLKAHSFTQITRFASGSKIVLTRLCVALASLALSMMPDAWPCAVADMVRLFQAEDSPVDSQGRCLALLELLTVLPEEFQTSRLPQYRKGLVRASLAVECGAVFPLLEQLLQQPSSPSCVRQKVLKCFSSWVQLEVPLQDCEALIQAAFAALQDSELFDSSVEAIVNAISQPDAQRYVNTLLKLIPLVLGLQEQLRQAVQNGDMETSHGICRIAVALGENHSRALLDQVEHWQSFLALVNMIMFCTGIPGHYPVNETTSSLTLTFWYTLQDDILSFEAEKQAVYQQVYRPVYFQLVDVLLHKAQFPSDEEYGFWSSDEKEQFRIYRVDISDTLMYVYEMLGAELLSNLYDKLGRLLTSSEEPYSWQHTEALLYGFQSIAETIDVNYSDVVPGLIGLIPRISISNVQLADTVMFTIGALSEWLADHPVMINSVLPLVLHALGNPELSVSSVSTLKKICRECKYELPPYAANIVAVSQDVLMKQIHKTSQCMWLMQALGFLLSALQVEENLKNLHSLISTYIQQLEKLAEEIPKPSNKLAIVHILGLLSNLFTTLDVSHHEDDHEGPELRKLPVPQGPNPVVVVLQQVFQLIQKVLSKWLSDAQVVEAVCAIFEKSVKTLLDDFAPMVPQLCEMLGRMYSTVPQASALDLTRQLVHIFAHEPAHFPPIEALFLLVTSVTLSLFQQGPRDHPDIVDSFMQLLAQALKRKPDLFQCERLDVKAVFQCAVLALKFPEAPTVKASCGFFTELLPRCGEIESVGKVVQEDGRMLLIAVLEAIGGQASRSLMDCFADILFALNKHCFSLLSMWIKEALQPPGFPSARLSPEQKDTFSQQILRERVNKRRVKEMVKEFTLLCRGLHGTDYTADY"}}, "note": "No constants are given. Whether binding was seen depends on the method and setting. In cells and extracts the contact can be indirect. Here binding means that the protein was enriched with, or labelled near, the bait; the list need not be complete."}
{"biological_target": "Heimdall (rat (endogenous in DI TNC1))", "assay": "affinity purification with mass spectrometry; rabbit anti-Heimdall on Dynabeads Protein A, 1 h at room temperature with 500 ug of DI TNC1 cell extract (cells treated or not with 200 ng/mL LPS); washes in PBS 0.1 M pH 8.0, glycine pH 2.8 elution, shotgun proteomics; control: antibody pre-incubated with the immunising peptides (IP PEP)"}
{"binder": "B1", "binding": "binds"}
{"binder": "B2", "binding": "binds"}
{"binder": "B3", "binding": "binds"}
{"binder": "B4", "binding": "binds"}
{"binder": "B5", "binding": "binds"}
{"binder": "B6", "binding": "binds"}
